Experiment [1] in a line: qHTS Assay for Modulators of Human Peripheral Myelin Protein 22 (PMP22) Expression/Activity (AID 1967). The conditions noted are these: Cell-based PMP22 reporter, dual-color luciferase ratio. In a few lines:
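Mouse MSC80 Schwann line, Pmp22 promoter–CBG68 reporter, EF-alpha–CBR internal control. 24h compound exposure, 37 °C/5% CO2, DMEM + 10% FBS. Readout: corrected green/red luminescence ratio, normalized to untreated cells; concentration-response curves fitted and classified.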
For orientation: qHTS replaces the single test concentration by a dilution series.

Experiment [2] can be described thus: Nrf2 qHTS screen for inhibitors: Validation (AID 493153). The settings on record: A549 ARE-Fluc reporter, 18-24 h; AC50: CellTiter-Fluor fluorescence read, measured here: cytotoxicity CellTiter-Fluor AC50; viability change: measured here: cytotoxicity max response. Summed up: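 A549 ARE_Fluc, 5% FBS OPTI-MEM; cpd titration, 18-24 h, 37°C/5% CO2. Read 1: CellTiter-Fluor (Ex 405/Em 525), cytotox. Read 2: luciferase lum, Nrf2 activity.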

The nature of experiment [3]: qHTS Validation Assay to Find Inhibitors of Chronic Active B-Cell Receptor Signaling (AID 485345). The conditions noted are these: ABC-DLBCL cells, chronic BCR signaling reporter. Summed up:
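TMD8 ABC-DLBCL cells stably carrying doxycycline-inducible IkappaBalpha–green luciferase fusion plus unfused red luciferase; compounds 46 uM to 3 nM, 4 h at 37C with doxycycline. Corrected green/red luminescence ratio normalized to 10 uM MG-132 and basal cell wells; curves fitted.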

A short description of experiment [4]: qHTS assay for small molecule antagonists of peroxisome proliferator-activated receptor delta signaling (AID 588535).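 Note: cells co-treated with a PPAR-delta agonist as stimulator during compound exposure.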 The conditions noted are these: HEK293T PPARd-UAS-bla, beta-lactamase FRET ratio, 18 h; 460 nm channel. In a few lines:
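Fluorescence from CCF4-loaded GeneBLAzer PPAR-delta-UAS-bla HEK293T cells (2 hrs RT loading) quantified reporter inhibition after an 18 hr, 37 C compound exposure across a titration.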

Experiment [5] in a line: qHTS assay for small molecule agonists of retinoid X receptor alpha signaling (AID 588544). The conditions noted are these: HEK293T RXRa-UAS-bla, beta-lactamase reporter, 18 h; 530 nm emission.
The nature of experiment [6]: S16 Schwann cell PMP22 intronic element beta-lactamase assay (AID 624044). The settings on record: S16 rat Schwann cells, PMP22 element beta-lactamase FRET, 24 h. Summed up:
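Beta-lactamase reporter under a PMP22 intronic regulatory element in stable S16 rat Schwann cells; 24 h compound exposure. 460 nm blue signal normalized between DMSO (0%) and potassium clavulanate, with 535 nm FRET tracking viability; curves classed by r2 and response.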

The nature of experiment [7]: qHTS Assay for Inhibitors of PDE-IV (AID 607). The settings on record: HEK293 ACTOne CNG channel cells, membrane potential fluorescence; measured here: parental cell counter-screen. Summed up: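 HEK293 ACTOne cells with CNG channel (1000/well), endogenous PDE4; membrane potential dye, compounds up to 22.9 uM final. Fluorescence Ex 535/Em 590; RO 20-1724 (100 uM final) as reference.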

Where [8] appears, read: measured here: green reporter channel AC50, mouse Pmp22 promoter in mouse Schwann cells.
Where [9] appears, read: measured here: red reporter channel AC50, EF-alpha promoter control reporter in MSC80 mouse Schwann cells.
Where [10] appears, read: measured here: CBR control luciferase (viability counter).
The mark [11] stands for this setting: measured here: 460 nm blue channel.
Setting [12] is: measured here: CBG/CBR ratio read-out.

The other results are listed elsewhere or left out. Further columns of the screen follow, without active or inactive calls. The list favours compounds with an active or inconclusive main result. For some of these results: Words in brackets tell the shape of the fitted curve; partial curves, single points and poor fits give uncertain potencies.

Usually AC50 stands for the concentration at which the activity in the assay is half-maximal.

For the molecule `CC(CN(C)C)CN1c2ccccc2CCc2ccccc21` (stereo unspecified), the concentration at half-maximal activity (AC50) is 53.6 µM [falling, partial curve] in experiment [1] (setting [8]) and 42.6 µM [falling, partial curve] in experiment [1] (setting [9]). Also, the viability change in experiment [2] is -5.96%.

Take `O=C(O)C1=CC(=C(c2ccc(O)c(C(=O)O)c2)c2ccc(O)c(C(=O)O)c2)C=CC1=O`: the AC50 is 67.5 µM [falling, partial curve, poor fit] in experiment [1] (setting [9]) and 2.59 µM [falling, partial curve] in experiment [3] (setting [10]).

As to `Oc1ccc(O)cc1`, the half-maximal activity concentration (AC50) is 13.5 µM [falling, full curve] in experiment [1] (setting [8]); 21.3 µM [falling, full curve] in experiment [1] (setting [9]); 17.8 µM [falling, partial curve] in experiment [6] (setting [11]). In addition, the max response in experiment [4] was -130%; in experiment [5], 35.7%.

Consider `CCN(CC)CCOC(=O)C1(C2CCCCC2)CCCCC1`, for which the AC50 was 10 µM [rising, partial curve] in experiment [7]; 60.1 µM [falling, partial curve] in experiment [1] (setting [8]); 60.1 µM [falling, partial curve, poor fit] in experiment [1] (setting [9]).

As for `CC(C)Cc1ccc([C@H](C)C(=O)O)cc1`, the AC50 in experiment [7] was 2.51 µM [rising, partial curve]; in experiment [1] (setting [8]) it was 60.1 µM [rising, partial curve, poor fit].

For the molecule `Ic1ccc(N2CCN(Cc3c[nH]c4ncccc34)CC2)cc1`, the AC50 in experiment [1] (setting [8]) is 75.7 µM [falling, partial curve, poor fit]. In addition, the viability change in experiment [2] is 9.18%.

On to `NC(N)=NC(N)=Nc1cccc(Cl)c1`, for which, in experiment [2], the viability change was found to be 9.71%.

For the molecule `NC(N)=Nc1nc(CSCC/C(N)=N/S(N)(=O)=O)cs1`, the AC50 in experiment [6] (setting [11]) was 14.1 µM [rising, single point].

In the case of `O=C(O)CN(CCOCCOCCN(CC(=O)O)CC(=O)O)CC(=O)O`, the concentration at half-maximal activity (AC50) is 12.6 µM [falling, partial curve] in experiment [6] (setting [11]) and 1.58 µM [falling, full curve, poor fit] in experiment [6] (measured here: 530 nm viability channel).

For `C#C[C@]1(O)CC[C@H]2[C@@H]3CCC4=Cc5oncc5CC4(C)[C@H]3CCC21C` (stereo partly specified), the half-maximal activity concentration (AC50) in experiment [3] (setting [12]) is 16.4 µM [falling, partial curve]; in experiment [3] (setting [10]) it was 29.1 µM [falling, single point]. The viability change in experiment [2] worked out at 10.9%.

As to `COc1cc(/C=C(\C#N)C(=O)Nc2nnc(C(F)(F)F)s2)ccc1OCc1ccc(C(F)(F)F)cc1C(F)(F)F`, the AC50 in experiment [3] (setting [10]) was 29.1 µM [falling, single point]; in experiment [2], 18.4 µM [falling, partial curve]. In addition, in experiment [2], the viability change was -49.9%.

For `c1ccc(C(NCCNC(c2ccccc2)c2ccccc2)c2ccccc2)cc1`, the AC50 in experiment [3] (setting [10]) is 18.4 µM [falling, single point]. In experiment [2], the viability change is -18.7%.

Turning to `O=C1c2ccccc2C(=O)c2c(NCCc3ccc(O)cc3)ccc(NCCc3ccc(O)cc3)c21`, the AC50 in experiment [3] (setting [10]) is 11.6 µM [falling, partial curve]. In experiment [2], the AC50 was 18.4 µM [falling, partial curve] and the viability change was -51.2%.

`N#Cc1cc([N+](=O)[O-])c2sc(C(N)=O)[n+]([O-])c2c1`: the AC50 in experiment [3] (setting [12]) is 11.6 µM [falling, partial curve]; in experiment [3] (setting [10]), 6.51 µM [falling, partial curve].

For the molecule `CCCCC#Cc1nc(NC)c2ncn([C@@H]3O[C@H](CO)[C@@H](O)[C@H]3O)c2n1`, the AC50 was 6.51 µM [falling, partial curve] in experiment [3] (setting [12]) and 0.651 µM [rising, full curve] in experiment [3] (setting [10]).

With `CSc1ccccc1N1CCN(CCCCCC(=O)NC2CCCc3ccccc32)CC1` (stereo unspecified), the AC50 in experiment [3] (setting [12]) was 20.6 µM [falling, single point]. In experiment [2], the AC50 is 23.1 µM [falling, partial curve] and the viability change was -39%.

On to `CN1CCc2cc(Cl)c(O)cc2[C@@H](c2ccccc2)C1`, for which the AC50 in experiment [7] is 15.8 µM [rising, partial curve, poor fit]; in experiment [3] (setting [10]), 18.4 µM [falling, single point].

As to `CC[C@@H](C)[C@H]1O[C@]2(CC[C@H]1C)C[C@@H]1C[C@@H](CC=C(C)[C@@H](O[C@H]3C[C@H](OC)[C@@H](O[C@H]4C[C@H](OC)[C@@H](O)[C@H](C)O4)[C@H](C)O3)[C@@H](C)C=CC=C3CO[C@@H]4[C@H](O)C(C)=C[C@@H](C(=O)O1)[C@]34O)O2`, the AC50 is 18.4 µM [falling, partial curve] in experiment [3] (setting [10]) and 14.6 µM [falling, partial curve] in experiment [2]. In addition, the viability change in experiment [2] is -67.5%.

For `CNC(=O)[C@H]1O[C@@H](n2cnc3c(NCc4ccc(N)cc4)ncnc32)[C@H](O)[C@@H]1O`, the AC50 in experiment [3] (setting [12]) is 8.2 µM [falling, partial curve]; in experiment [3] (setting [10]), 4.11 µM [rising, full curve].

The values above are taken from PubChem BioAssay (NCATS).
